Results are given in words; binding and its absence hold for the method and conditions named. In cells and extracts the contact can be indirect. Some entries that bind do so weakly or less than the wild type.
What was measured:
[1] = molecular target: T1, NLRP11, stably overexpressed in A549 cells (UniProt P59045); test: co-IP; A549 cells overexpressing NLRP11, with or without MCC950
T1 sequence: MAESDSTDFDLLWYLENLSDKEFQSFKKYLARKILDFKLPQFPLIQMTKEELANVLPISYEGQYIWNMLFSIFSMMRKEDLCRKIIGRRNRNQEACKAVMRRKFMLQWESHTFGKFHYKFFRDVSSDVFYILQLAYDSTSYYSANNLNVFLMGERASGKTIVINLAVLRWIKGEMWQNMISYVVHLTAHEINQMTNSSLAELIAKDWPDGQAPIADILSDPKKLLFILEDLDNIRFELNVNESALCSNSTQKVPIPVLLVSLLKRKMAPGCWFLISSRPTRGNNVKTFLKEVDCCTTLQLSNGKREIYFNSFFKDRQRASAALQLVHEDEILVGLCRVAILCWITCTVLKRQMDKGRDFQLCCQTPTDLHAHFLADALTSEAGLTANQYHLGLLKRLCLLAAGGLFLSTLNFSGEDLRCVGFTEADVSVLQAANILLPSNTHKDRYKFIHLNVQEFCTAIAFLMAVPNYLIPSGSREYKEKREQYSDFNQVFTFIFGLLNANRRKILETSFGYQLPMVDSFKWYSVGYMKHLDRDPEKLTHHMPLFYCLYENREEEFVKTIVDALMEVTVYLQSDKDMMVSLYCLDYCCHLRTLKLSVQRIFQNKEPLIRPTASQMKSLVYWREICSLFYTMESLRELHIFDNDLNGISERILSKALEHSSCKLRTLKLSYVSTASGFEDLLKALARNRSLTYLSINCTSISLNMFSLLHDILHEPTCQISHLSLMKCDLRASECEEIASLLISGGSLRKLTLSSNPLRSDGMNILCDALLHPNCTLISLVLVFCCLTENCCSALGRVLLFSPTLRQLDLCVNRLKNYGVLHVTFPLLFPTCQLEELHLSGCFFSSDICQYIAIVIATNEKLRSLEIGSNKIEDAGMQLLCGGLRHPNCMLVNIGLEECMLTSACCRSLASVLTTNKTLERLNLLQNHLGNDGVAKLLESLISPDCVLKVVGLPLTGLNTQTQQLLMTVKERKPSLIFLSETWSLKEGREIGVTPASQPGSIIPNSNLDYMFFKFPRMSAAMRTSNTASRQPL

Sequences of proteins named here, by UniProt entry; tags and fusion partners are left off.
UniProt P08670: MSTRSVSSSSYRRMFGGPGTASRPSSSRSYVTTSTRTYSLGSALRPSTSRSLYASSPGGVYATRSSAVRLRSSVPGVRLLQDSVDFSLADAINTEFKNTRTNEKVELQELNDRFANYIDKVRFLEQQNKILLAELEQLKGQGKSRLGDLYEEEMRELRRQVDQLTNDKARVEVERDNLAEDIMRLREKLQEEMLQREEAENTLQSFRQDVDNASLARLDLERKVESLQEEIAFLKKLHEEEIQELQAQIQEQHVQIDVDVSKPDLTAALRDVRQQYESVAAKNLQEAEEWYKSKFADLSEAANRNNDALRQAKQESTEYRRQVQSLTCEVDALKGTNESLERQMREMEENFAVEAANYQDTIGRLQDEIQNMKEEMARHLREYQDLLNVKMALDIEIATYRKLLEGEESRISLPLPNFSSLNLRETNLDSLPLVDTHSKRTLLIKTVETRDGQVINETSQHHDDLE
UniProt O95251: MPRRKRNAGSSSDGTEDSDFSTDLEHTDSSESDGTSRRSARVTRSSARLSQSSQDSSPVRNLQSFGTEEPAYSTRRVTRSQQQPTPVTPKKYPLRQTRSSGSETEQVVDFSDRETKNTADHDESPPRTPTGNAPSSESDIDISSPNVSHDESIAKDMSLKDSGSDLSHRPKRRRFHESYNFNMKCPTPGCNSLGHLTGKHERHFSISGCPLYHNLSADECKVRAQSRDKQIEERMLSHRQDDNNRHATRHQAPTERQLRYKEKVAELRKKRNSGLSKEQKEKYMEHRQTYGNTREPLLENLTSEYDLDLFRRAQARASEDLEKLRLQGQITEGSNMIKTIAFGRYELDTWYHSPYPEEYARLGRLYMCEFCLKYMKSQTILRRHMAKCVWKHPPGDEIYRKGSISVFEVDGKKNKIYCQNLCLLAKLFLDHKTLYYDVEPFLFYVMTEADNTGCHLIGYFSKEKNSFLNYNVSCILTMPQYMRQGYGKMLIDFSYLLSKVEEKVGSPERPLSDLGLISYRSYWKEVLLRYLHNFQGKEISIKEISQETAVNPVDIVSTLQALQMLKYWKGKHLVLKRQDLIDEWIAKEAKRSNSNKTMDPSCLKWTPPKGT

[2] = molecular target: T2, NACHT, LRR, and PYD domain‐containing protein 11 (NLRP11) (human (endogenous in A549, H1299)) (UniProt P59045); test: co-IP; endogenous proteins in A549 and H1299 cells, western blot
T2 sequence: T1 sequence

[3] = molecular target: vimentin (human (endogenous in A549, H1299)) (UniProt P08670); test: co-IP; A549 cells overexpressing NLRP11, with or without MCC950
[4] = molecular target: vimentin (co-IPs whose cells and constructs are not stated) (UniProt P08670); test: co-IP; vimentin and KAT7, with and without NLRP11; cells not given

binding [1] | binding [2] | binding [3] | binding [4] | Substance
binds | binds | – | – | vimentin (from UniProt P08670 1-466)
binds | – | binds | – | lysine acetyltransferase 7 (KAT7) (from UniProt O95251 1-611) (enzyme)
– | – | – | binds | lysine acetyltransferase 7 (KAT7) (co-IP whose cells and constructs are not stated) (from UniProt O95251 1-611) (enzyme)
